# Data reported in paper PMC7140530.
# Amino acid sequences for entries named in this document (tags omitted).
# UniProt Q9QX29: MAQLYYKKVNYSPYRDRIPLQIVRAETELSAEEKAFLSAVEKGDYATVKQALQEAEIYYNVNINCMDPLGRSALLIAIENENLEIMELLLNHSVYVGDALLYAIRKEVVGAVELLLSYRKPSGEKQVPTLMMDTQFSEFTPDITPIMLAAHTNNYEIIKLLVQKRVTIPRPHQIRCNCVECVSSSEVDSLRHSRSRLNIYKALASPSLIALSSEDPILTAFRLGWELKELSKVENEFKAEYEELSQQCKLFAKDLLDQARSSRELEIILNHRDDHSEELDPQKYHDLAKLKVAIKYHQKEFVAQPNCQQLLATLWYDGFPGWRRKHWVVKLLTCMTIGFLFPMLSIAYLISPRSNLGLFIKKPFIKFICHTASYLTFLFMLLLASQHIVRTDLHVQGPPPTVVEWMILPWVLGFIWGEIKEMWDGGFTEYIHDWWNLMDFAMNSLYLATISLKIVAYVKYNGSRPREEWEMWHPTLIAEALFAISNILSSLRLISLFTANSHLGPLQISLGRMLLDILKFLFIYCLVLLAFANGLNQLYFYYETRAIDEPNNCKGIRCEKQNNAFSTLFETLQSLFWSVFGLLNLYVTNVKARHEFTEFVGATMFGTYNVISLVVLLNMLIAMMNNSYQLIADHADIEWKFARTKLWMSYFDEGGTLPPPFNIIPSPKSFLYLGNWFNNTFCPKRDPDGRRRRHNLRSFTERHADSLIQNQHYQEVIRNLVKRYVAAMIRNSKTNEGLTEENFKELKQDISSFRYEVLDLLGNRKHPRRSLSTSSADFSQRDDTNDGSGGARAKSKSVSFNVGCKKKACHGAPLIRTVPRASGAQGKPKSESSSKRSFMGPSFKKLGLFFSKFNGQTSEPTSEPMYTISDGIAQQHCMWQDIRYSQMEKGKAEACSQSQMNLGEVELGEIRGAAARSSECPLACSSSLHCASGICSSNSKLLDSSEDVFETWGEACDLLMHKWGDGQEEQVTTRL
# UniProt Q9QUQ5: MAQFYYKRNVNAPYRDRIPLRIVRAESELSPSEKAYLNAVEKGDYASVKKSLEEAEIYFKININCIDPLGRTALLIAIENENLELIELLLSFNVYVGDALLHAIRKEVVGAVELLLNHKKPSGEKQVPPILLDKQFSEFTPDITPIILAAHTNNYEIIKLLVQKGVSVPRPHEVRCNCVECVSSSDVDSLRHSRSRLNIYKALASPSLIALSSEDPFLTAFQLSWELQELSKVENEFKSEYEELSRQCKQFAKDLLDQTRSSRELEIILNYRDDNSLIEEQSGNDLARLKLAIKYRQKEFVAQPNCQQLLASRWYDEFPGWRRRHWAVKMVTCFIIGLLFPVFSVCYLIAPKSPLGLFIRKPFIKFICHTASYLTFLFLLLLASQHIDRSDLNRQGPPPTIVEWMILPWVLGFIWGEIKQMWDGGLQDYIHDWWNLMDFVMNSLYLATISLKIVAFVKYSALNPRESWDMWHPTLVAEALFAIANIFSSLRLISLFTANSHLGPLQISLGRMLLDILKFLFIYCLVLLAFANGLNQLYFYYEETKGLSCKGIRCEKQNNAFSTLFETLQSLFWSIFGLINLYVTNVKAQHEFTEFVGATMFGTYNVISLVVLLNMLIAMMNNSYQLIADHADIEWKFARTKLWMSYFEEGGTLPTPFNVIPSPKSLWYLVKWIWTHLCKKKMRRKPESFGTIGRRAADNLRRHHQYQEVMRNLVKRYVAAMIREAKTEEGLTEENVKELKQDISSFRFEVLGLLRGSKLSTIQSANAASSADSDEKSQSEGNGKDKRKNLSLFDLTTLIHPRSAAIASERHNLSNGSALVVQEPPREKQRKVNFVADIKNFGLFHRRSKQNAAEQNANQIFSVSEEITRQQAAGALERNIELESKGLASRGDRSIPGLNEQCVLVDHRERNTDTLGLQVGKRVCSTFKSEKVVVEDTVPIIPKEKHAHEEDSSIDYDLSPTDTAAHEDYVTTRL
# UniProt Q61056: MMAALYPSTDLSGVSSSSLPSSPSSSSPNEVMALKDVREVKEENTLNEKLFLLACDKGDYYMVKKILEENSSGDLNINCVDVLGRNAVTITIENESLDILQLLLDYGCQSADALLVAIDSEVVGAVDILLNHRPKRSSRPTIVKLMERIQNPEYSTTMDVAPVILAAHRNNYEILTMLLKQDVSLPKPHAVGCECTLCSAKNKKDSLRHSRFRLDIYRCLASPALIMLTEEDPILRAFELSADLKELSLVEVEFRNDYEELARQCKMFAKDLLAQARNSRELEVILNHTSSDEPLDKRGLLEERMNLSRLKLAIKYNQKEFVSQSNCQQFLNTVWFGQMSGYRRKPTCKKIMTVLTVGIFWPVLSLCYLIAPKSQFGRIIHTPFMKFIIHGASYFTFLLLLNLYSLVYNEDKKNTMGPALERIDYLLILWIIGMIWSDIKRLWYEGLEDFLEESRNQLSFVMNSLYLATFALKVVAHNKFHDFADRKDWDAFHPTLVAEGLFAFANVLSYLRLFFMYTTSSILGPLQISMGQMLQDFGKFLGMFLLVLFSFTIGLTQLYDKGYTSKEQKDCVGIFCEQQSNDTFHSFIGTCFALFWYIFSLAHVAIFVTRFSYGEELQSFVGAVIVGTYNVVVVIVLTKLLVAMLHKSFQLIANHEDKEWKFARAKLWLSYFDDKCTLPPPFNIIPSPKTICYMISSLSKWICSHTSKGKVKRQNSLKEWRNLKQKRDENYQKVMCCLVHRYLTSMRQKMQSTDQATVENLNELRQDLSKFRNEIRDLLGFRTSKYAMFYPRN
# No constants are given. Whether binding was seen depends on the method and setting. Binding seen in cells or lysates may run through a third protein. Some results given as binding are weak or reduced against the parent protein; the word gives no strength. For some assays here: Tags and fused reporters may be left off the sequences shown.
# B1: PLSCR1-EGFP (phospholipid scramblase 1, EGFP tagged at the carboxyl terminus) (protein, UniProt O15162-1 1-318)
# chain: MDKQNSQMNASHPETNLPVGYPPQYPPTAFQGPPGYSGYPGPQVSYPPPPAGHSGPGPAGFPVPNQPVYNQPVYNQPVGAAGVPWMPAPQPPLNCPPGLEYLSQIDQILIHQQIELLEVLTGFETNNKYEIKNSFGQRVYFAAEDTDCCTRNCCGPSRPFTLRIIDNMGQEVITLERPLRCSSCCCPCCLQEIEIQAPPGVPIGYVIQTWHPCLPKFTIQNEKREDVLKISGPCVVCSCCGDVDFEIKSLDEQCVVGKISKHWTGILREAFTDADNFGIQFPLDLDVKMKAVMIGACFLIDFMFFESTGSQEQKSGVW
# B2: PLSCR1 (endogenous, mouse cortical neurons) (protein, UniProt Q9JJ00 1-328)
# chain: MENHSKQTEAPHPGTYMPAGYPPPYPPAAFQGPSDHAAYPIPQAGYQGPPGPYPGPQPGYPVPPGGYAGGGPSGFPVQNQPAYNHPGGPGGTPWMPAPPPPLNCPPGLEYLAQIDQLLVHQQIELLEVLTGFETNNKYEIKNSLGQRVYFAVEDTDCCTRNCCGASRPFTLRILDNLGREVMTLERPLRCSSCCFPCCLQEIEIQAPPGVPVGYVTQTWHPCLPKFTLQNEKKQDVLKVVGPCVVCSCCSDIDFELKSLDEESVVGKISKQWSGFVREAFTDADNFGIQFPLDLDVKMKAVMLGACFLIDFMFFERTGNEEQRSGAWQ
# Legend:
# [1] = target: T1, PLSCR1 (endogenous, mouse cortical neurons) (mouse (endogenous in cortical neurons)) (UniProt Q9JJ00); assay: co-IP; lysates of freshly isolated mouse cortical neurons, endogenous proteins; 1% Nonidet P-40, 150 mmol/L NaCl, 20 mmol/L Tris-HCl pH 8.0; anti-PLSCR1 or anti-TRPC5 overnight at 4 C, protein A magnetic beads; immunoblot; preimmune IgG as control
# T1 sequence: B2 chain
# [2] = target: T1, PLSCR1 (endogenous, mouse cortical neurons) (mouse (endogenous in cortical neurons)); assay: proximity ligation; in situ PLA (Duolink) on fixed, permeabilized, freshly isolated C57 mouse cerebral cortical neurons; goat anti-PLSCR1 and rabbit anti-TRPC5 (1:40); control with anti-TRPC5 antibody alone
# [3] = target: T2, PLSCR1-EGFP (phospholipid scramblase 1, EGFP tagged at the carboxyl terminus) (human) (UniProt O15162); assay: FRET or BRET; sensitized emission FRET in HEK293 cells co-transfected with EGFP-tagged (donor) and mCherry-tagged (acceptor) constructs; Leica confocal
# T2 sequence: B1 chain
# [4] = target: T2, PLSCR1-EGFP (phospholipid scramblase 1, EGFP tagged at the carboxyl terminus) (human); assay: co-IP; HEK293 cells co-transfected; lysis in 1% Nonidet P-40, 150 mmol/L NaCl, 20 mmol/L Tris-HCl pH 8.0; 800 ug protein with 3 ug anti-mCherry or anti-EGFP overnight at 4 C, protein A magnetic beads; immunoblot; preimmune IgG as control
# [5] = target: TRPC5-mCherry (transient receptor potential canonical 5, mCherry tagged at the carboxyl terminus) (mouse) (UniProt Q9QX29); assay: as above
# [6] = target: TRPC5 (endogenous, mouse cortical neurons) (mouse (endogenous in cortical neurons)) (UniProt Q9QX29); assay: co-IP; lysates of freshly isolated mouse cortical neurons, endogenous proteins; 1% Nonidet P-40, 150 mmol/L NaCl, 20 mmol/L Tris-HCl pH 8.0; anti-PLSCR1 or anti-TRPC5 overnight at 4 C, protein A magnetic beads; immunoblot; preimmune IgG as control
molecule,measurement,setting,value
"TRPC4 (endogenous, mouse cortical neurons) (from UniProt Q9QUQ5 1-974)",binding,[1],binds
"TRPC5 (endogenous, mouse cortical neurons) (from UniProt Q9QX29 1-975)",binding,[1],binds
same,binding,[2],binds
"TRPC5-mCherry (transient receptor potential canonical 5, mCherry tagged at the carboxyl terminus) (from UniProt Q9QX29 1-975)",binding,[3],binds
same,binding,[4],binds
"TRPC1 (endogenous, mouse cortical neurons) (from UniProt Q61056 1-793)",binding,[1],binds
B1,binding,[5],binds
B2,binding,[6],binds
